Results are given in words; binding and its absence hold for the method and conditions named. Binding seen in cells or lysates may run through a third protein.
Target: T1, Vitamin D Receptor (VDR) (human (endogenous in papillary thyroid cancer tissue)) (UniProt P11473)
T1 sequence: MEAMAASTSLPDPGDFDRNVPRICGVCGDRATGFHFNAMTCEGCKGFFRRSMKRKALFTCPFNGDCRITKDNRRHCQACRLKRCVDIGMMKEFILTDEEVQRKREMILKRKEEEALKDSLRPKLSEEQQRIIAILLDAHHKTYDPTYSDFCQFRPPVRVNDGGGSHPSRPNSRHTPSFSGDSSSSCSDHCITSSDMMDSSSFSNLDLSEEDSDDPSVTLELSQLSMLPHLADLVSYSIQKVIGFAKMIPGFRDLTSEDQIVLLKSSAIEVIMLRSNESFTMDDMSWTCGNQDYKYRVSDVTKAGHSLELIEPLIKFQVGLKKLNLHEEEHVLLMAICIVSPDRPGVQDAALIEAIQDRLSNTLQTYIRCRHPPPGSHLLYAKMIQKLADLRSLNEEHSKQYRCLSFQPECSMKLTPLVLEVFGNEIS
Assay: co-IP; reverse immunoprecipitation with VDR antibody (rat, Invitrogen) as bait from precleared RIPA lysates of fresh papillary thyroid cancer tissue, Protein A/G magnetic beads, 4 °C; supernatant and beads blotted

Chains of the proteins cited; added tags and fusions are not shown. Lines headed by an entry give the natural chain unless they say otherwise; changes in a name come on top.
UniProt P13497: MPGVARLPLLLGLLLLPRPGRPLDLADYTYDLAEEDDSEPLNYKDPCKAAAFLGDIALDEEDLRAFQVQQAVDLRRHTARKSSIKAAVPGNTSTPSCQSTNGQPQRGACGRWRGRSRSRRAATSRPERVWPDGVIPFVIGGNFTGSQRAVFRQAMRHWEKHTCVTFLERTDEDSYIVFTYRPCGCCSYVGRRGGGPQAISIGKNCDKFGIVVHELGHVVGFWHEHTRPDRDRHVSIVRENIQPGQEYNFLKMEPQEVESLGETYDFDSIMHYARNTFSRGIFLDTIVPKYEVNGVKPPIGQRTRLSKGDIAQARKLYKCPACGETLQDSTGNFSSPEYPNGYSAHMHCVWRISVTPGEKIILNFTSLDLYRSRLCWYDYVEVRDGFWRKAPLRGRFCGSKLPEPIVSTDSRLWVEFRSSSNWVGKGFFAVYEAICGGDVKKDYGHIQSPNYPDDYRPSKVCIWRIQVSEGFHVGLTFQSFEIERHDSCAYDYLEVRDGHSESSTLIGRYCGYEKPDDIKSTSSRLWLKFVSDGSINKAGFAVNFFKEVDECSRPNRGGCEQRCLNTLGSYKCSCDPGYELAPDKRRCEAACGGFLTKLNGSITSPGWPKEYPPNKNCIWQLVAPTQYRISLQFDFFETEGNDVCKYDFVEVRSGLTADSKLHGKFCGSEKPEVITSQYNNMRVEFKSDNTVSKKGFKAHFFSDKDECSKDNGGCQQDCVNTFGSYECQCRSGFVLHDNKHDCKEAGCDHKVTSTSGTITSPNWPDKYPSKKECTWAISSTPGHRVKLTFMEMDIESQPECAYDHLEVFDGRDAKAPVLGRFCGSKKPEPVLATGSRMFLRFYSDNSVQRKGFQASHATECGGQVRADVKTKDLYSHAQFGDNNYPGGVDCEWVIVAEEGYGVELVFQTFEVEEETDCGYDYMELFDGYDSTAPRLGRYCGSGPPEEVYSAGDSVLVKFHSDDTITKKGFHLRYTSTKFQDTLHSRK

bone morphogenetic protein-1 (BMP-1) (from UniProt P13497)
binding: no binding

Reference: paper PMC10742985
